Literature values, collected in patent US9724544B2, “Vitamin D promoting sunscreen” (priority 2009, dated 2017).
At least one structure is not confirmed: it was looked up by name or label, or the drawing left a doubt.

Conditions: cited from earlier work; for absorption in the vitamin D producing range: approximately 295 to 315 nm

| SMILES | absorption maximum (peak) | absorption in the vitamin D producing range | share blocked of the UV radiation needed for vitamin D synthesis |
| --- | --- | --- | --- |
| O=S(=O)([O-])c1cc(S(=O)(=O)O)cc2[nH]c(-c3ccc(-c4nc5c(S(=O)(=O)[O-])cc(S(=O)(=O)O)cc5[nH]4)cc3)nc12.[Na+].[Na+] [Bisdisulizole disodium, disodium phenyl dibenzimidazole tetrasulfonate] | 335 nm |  |  |
| CC(C)(C)CC(C)(C)c1cc(Cc2cc(C(C)(C)CC(C)(C)C)cc(-n3nc4ccccc4n3)c2O)c(O)c(-n2nc3ccccc3n2)c1 [Bisoctrizole, methylene bis-benzotriazolyl tetramethyl butyl phenol] |  | high percentage |  |
| CCCCC(CC)COC(=O)C=Cc1ccc(OC)cc1 (stereo not shown) [Octinoxate, ethylhexyl methoxycinnamate] |  | high percentage | large percentage |
